This is an account of results in publication PMC4176381.

The chains behind the UniProt entries cited, without tags or fusion partners. Residues count along the entry.
UniProt P28159, 110-594: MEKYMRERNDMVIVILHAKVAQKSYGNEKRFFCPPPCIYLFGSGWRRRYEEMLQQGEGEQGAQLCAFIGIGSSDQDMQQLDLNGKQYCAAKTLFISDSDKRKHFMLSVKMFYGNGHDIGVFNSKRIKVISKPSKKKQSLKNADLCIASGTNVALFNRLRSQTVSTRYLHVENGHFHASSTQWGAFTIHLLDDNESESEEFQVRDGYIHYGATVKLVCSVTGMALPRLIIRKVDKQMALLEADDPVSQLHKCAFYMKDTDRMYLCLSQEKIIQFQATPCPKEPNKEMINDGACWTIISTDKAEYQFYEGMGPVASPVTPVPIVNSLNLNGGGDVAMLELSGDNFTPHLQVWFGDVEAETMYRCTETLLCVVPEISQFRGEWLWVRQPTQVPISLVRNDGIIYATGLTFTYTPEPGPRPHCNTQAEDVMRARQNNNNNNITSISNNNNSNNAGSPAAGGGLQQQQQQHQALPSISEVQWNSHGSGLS

Weaker means in comparison with the reference protein, sequence or condition of that experiment.

The target in this data set is GST-Su(H) (CSL) (UniProt P28159). Description: competition with a labelled probe. The settings on record: EMSA: 150 mM KCl, 50 mM Tris pH 7.4, 1 mM DTT, 2% polyvinyl alcohol, 30 ng/ul poly(dI-dC), on ice 30 min, 25 fmol biotin probe in 5 ul, recombinant protein, residues 110-594, protein details: N-terminal GST. (Mobility shift assays separate free from complexed probe on a gel.)

Setting [1] is: intermediate, detectable at 125x excess.

With “ACCGAAACAATGGGAACTGGTAGAAAG (double strand) [M5 (S4, AATGGGAA)]”, under setting [1], the binding result is reported as “binds more weakly”.
“ACCGAAACCCTGAGAACTGGTAGAAAG (double strand) [M6 (S5, CCTGAGAA)]”: under setting [1], the binding result is listed as “binds more weakly”.
As for “ACCGAAACCGTGAAAACTGGTAGAAAG (double strand) [M9 (S8, CGTGAAAA)]”, the binding result (very weak competition) was “binds more weakly”.
Turning to “ACCGAAACCGTGTGACCTGGTAGAAAG (double strand) [M10 (S9, CGTGTGAC)]”, under “intermediate”, the binding result is recorded as “binds more weakly”.
